PubChem BioAssay AID1259254 – NCATS | 2017

- Test: 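Finding genes that stop cells copying their DNA twice in one cycle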 (primary screen)
- Cells: human HCT116 colorectal cancer cells
- Knock-down reagent: single siRNA against human genes
- Time to read-out: 3 days
- Detection: 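Imaged Hoechst DNA stain sorts each cell into a cycle phase by DNA amount; per plate, G2 fraction set to 0% for non-targeting and 100% for GMNN siRNA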
- Direction: G2 robust z-score: higher = more G2 cells, more excess DNA replication
- Active means: 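An siRNA counts as active if its G2 robust z-score lies at least 5 MADs above the screen median; here such calls match roughly 38% of GMNN control or more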
In all, the deposit lists about 59,000 reagents; shown is a part drawn at random. About 1,550 of them (2.6%) were called active. 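G2 share is only a proxy for re-replication; each gene was hit by three separate siRNAs, and active genes were retested.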 The numbers tell different reagents against one gene apart. Not all columns of the deposit are shown. Reagent sequences are not shown. The record does not give: the amount of reagent.

G2 robust z-score, by gene and reagent
MYCLP2: #1 1.39 inactive; #2 0.712 inactive; #3 0.513 inactive
BAG5: #1 -0.338 inactive; #2 1.17 inactive; #3 -0.16 inactive
SNTB2: #1 1.29 inactive; #2 3.43 inactive; #3 2.04 inactive
ACTG1P20: #1 4.01 inactive; #2 -0.149 inactive; #3 -0.262 inactive
CELF1: #1 2.16 inactive; #2 -2.11 inactive; #3 0.1 inactive
TTLL9: #1 -0.443 inactive; #2 1.89 inactive; #3 2.86 inactive
HNRNPA1P8: #1 -0.231 inactive; #2 -1.03 inactive; #3 -0.273 inactive

6 of these entries in another layout.
| gene | reagent no. | G2 robust z-score | activity call |
| --- | --- | --- | --- |
| BAG5 | 2 | 1.17 | inactive |
| BAG5 | 3 | -0.16 | inactive |
| SNTB2 | 1 | 1.29 | inactive |
| SNTB2 | 2 | 3.43 | inactive |
| SNTB2 | 3 | 2.04 | inactive |
| ACTG1P20 | 1 | 4.01 | inactive |

Next entries follow:
G2 robust z-score, by gene and reagent
PSME2: #1 1.29 inactive; #2 -0.304 inactive; #3 -0.598 inactive
PCP4: #1 0.855 inactive; #2 1.19 inactive; #3 -1.15 inactive
RFC3: #1 1.07 inactive; #2 -0.359 inactive; #3 6.58 active
IL15RA: #1 0.796 inactive; #2 0.491 inactive; #3 0.554 inactive
RAB39B: #1 -0.843 inactive; #2 1.69 inactive; #3 0.396 inactive
EPHA6: #1 -0.84 inactive; #2 -0.454 inactive; #3 0.0726 inactive
SSTR1: #1 0.27 inactive; #2 -1.18 inactive; #3 -0.514 inactive
PPP4R3A: #1 -1.46 inactive; #2 1.33 inactive; #3 -0.257 inactive
GAPDH: #1 5.29 active; #2 -1.01 inactive; #3 0.449 inactive
